Source: the supplement of paper PMC10849652
The other results are listed elsewhere or left out.

Protein sequences, listed by entry. Tags and fused reporters are not part of them. Lines headed by an entry give the natural chain unless they say otherwise; changes in a name come on top.
UniProt P08195: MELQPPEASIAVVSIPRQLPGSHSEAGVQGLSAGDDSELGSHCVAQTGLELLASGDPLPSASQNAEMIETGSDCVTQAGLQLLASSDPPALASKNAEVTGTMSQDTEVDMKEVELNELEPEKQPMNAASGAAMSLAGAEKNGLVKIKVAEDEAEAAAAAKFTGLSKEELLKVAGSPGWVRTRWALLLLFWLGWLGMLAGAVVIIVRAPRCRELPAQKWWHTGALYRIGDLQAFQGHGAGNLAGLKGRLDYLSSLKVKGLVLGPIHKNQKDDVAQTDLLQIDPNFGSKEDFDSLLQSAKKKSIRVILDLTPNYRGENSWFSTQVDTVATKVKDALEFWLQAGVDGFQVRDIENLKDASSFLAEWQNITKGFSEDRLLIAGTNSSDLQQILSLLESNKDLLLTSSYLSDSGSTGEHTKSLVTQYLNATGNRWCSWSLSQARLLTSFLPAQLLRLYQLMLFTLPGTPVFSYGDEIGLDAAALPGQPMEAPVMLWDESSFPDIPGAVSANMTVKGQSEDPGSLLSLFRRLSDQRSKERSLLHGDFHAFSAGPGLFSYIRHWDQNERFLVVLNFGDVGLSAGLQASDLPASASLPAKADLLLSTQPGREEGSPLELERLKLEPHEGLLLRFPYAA
UniProt Q96BI1: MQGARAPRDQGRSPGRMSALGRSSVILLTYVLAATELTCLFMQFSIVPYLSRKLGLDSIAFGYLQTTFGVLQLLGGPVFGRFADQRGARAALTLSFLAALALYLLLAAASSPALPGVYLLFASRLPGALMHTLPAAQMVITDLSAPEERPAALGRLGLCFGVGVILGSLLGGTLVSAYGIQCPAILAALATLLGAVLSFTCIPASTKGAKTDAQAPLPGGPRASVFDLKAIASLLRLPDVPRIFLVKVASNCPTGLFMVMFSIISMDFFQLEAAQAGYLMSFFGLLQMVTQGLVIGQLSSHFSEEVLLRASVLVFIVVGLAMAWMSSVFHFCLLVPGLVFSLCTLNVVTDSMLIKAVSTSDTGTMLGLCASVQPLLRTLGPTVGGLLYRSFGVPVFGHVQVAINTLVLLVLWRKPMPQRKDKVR
UniProt Q6NT16: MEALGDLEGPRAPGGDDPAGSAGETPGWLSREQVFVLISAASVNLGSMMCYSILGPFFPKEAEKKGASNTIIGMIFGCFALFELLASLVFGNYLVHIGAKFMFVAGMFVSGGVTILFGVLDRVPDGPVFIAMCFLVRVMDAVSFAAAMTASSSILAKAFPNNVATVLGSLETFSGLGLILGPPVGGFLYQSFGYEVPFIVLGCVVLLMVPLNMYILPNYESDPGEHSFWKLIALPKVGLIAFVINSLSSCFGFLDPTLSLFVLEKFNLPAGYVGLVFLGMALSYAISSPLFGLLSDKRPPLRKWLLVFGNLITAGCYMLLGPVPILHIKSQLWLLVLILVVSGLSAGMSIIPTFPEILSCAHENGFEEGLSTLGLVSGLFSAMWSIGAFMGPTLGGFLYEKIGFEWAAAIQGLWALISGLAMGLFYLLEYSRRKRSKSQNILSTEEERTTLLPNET
UniProt Q6PCB7: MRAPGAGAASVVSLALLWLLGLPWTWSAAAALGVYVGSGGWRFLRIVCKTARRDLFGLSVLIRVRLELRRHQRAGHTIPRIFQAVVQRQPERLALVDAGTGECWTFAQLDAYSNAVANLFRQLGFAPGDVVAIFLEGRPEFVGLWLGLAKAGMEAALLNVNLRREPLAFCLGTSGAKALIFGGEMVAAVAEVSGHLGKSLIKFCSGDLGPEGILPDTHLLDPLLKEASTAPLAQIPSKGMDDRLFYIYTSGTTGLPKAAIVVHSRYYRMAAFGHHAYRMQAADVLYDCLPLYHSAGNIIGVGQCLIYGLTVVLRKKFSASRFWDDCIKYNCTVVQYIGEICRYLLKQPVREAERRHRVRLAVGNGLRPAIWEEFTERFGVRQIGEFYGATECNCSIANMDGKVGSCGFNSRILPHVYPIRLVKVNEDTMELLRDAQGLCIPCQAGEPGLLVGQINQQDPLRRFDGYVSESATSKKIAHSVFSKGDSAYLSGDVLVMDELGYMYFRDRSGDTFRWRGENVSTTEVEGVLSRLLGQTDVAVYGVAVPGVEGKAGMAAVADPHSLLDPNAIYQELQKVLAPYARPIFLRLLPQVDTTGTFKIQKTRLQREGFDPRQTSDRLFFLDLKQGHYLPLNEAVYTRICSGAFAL
UniProt Q6NUK1: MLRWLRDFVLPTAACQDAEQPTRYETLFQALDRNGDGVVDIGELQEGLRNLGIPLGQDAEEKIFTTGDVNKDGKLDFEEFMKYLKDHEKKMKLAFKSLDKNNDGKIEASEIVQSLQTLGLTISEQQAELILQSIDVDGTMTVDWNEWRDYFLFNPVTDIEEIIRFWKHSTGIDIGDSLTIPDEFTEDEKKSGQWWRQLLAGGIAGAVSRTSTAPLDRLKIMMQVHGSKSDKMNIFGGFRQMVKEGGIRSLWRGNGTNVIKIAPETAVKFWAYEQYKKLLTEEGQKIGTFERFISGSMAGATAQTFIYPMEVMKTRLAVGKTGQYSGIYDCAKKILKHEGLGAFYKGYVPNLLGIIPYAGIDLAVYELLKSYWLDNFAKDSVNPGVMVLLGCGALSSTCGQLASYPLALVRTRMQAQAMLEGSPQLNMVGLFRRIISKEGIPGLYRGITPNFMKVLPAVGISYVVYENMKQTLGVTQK
UniProt Q9BXP2: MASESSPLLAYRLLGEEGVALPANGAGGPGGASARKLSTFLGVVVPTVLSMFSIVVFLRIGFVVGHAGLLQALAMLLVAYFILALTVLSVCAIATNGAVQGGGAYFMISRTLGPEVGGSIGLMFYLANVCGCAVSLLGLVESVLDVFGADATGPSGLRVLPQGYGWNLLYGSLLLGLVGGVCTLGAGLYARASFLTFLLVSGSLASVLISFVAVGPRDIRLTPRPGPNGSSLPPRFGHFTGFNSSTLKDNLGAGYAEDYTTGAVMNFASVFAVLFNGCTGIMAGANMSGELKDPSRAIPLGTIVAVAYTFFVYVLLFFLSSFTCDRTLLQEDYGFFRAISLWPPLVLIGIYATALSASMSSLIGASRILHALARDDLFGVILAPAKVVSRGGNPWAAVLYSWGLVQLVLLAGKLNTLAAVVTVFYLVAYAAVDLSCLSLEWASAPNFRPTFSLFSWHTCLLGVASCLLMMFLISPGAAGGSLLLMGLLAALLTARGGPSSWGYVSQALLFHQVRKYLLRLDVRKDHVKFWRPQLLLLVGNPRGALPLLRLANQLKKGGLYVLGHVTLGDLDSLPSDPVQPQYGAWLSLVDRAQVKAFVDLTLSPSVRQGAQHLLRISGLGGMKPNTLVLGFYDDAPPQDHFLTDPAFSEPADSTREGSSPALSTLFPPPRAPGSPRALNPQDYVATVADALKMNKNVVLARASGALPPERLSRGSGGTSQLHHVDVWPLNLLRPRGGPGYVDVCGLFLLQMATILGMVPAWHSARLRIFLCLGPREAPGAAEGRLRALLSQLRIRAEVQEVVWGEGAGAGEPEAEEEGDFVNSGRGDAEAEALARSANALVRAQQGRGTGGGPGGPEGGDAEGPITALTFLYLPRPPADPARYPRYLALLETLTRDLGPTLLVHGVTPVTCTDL
UniProt L0R6Q1: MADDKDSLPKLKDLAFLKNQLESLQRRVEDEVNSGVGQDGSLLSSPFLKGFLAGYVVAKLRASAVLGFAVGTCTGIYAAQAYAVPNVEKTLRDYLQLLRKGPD
UniProt O43772: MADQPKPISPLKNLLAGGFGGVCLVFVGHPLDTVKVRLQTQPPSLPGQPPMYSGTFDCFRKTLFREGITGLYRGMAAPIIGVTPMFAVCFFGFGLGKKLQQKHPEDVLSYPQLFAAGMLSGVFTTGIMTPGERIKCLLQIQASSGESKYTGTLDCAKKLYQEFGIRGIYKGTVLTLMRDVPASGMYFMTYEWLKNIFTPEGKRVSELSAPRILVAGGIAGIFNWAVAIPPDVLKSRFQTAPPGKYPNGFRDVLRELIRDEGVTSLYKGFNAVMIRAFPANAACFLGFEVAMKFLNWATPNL
UniProt Q9UPY5: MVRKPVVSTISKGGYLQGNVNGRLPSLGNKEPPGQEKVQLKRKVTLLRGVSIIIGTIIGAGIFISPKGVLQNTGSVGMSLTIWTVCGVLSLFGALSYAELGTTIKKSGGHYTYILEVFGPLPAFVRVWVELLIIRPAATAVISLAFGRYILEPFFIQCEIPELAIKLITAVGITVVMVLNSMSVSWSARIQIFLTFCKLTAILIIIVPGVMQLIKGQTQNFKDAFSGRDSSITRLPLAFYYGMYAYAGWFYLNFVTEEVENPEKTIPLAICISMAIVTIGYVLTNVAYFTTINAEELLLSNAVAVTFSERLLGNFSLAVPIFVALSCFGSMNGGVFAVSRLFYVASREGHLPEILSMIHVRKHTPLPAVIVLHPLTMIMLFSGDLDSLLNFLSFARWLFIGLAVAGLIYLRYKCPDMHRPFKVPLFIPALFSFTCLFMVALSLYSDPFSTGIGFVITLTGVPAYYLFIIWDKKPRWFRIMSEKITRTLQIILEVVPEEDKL
UniProt O14975, whole entry, looked up: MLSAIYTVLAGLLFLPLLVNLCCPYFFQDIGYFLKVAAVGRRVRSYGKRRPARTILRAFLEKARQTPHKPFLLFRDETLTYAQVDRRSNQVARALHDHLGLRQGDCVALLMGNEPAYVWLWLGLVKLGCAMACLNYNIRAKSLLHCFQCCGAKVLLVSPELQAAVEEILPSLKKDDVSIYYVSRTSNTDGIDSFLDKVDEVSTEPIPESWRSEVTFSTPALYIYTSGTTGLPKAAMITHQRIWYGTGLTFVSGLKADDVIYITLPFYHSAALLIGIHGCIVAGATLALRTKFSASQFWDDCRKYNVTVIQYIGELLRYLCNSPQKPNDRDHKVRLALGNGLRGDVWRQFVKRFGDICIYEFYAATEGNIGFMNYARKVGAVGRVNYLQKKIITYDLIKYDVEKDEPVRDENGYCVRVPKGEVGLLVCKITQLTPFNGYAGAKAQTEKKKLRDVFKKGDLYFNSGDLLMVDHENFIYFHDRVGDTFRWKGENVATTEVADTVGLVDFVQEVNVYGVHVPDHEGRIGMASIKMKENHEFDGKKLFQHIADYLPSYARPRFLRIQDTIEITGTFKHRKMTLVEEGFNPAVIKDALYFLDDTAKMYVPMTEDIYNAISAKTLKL
UniProt Q02978: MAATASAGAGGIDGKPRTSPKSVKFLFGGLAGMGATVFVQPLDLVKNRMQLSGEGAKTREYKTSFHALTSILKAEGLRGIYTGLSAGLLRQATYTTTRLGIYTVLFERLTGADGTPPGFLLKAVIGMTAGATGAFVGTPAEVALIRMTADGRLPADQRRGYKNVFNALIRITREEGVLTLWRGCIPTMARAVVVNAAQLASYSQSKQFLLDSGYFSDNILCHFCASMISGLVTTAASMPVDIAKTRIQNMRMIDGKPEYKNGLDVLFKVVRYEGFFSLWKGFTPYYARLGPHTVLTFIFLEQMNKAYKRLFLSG
UniProt Q14493, whole entry, looked up: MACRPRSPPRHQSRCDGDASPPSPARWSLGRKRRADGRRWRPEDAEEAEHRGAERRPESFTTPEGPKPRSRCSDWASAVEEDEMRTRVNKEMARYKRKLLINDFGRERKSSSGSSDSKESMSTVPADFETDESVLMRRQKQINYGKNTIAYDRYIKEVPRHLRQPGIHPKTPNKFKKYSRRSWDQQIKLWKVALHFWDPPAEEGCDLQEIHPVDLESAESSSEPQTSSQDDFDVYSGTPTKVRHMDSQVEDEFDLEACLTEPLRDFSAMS
UniProt P53007, whole entry, looked up: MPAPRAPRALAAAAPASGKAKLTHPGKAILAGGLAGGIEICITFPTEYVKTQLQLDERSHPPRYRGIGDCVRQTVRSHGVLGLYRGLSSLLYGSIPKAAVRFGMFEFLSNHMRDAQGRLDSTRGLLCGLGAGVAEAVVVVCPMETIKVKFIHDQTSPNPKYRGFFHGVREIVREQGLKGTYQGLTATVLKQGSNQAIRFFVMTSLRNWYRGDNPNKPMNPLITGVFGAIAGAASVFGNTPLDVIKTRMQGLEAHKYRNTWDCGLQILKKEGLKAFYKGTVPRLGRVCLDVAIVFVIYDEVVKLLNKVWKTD
UniProt P53985: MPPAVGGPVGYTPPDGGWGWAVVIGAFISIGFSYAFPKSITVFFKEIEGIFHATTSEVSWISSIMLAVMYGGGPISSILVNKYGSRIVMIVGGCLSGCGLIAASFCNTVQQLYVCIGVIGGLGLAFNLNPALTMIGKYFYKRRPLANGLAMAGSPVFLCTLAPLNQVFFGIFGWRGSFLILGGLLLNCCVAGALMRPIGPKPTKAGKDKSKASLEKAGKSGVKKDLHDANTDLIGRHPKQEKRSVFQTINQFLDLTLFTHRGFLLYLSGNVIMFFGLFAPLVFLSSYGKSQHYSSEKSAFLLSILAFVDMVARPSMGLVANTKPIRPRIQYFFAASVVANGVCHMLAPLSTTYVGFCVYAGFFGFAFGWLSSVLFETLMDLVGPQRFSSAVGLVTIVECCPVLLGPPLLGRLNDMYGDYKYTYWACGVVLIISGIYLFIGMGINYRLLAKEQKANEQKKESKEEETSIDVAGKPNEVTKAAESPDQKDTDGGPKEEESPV

What was measured:
Test in all cases: log2 fold change, soluble protein after heating vs DMSO (PISA); higher = thermal stabilisation; K562 cells, 10 uM, 30 min; active = over 0.2 and 3.5 SD of the protein, either way, in both replicates (recomputed)
[1] = compound: CC1=C(C=C(C=C1)NC(=O)C2=CC(=CC=C2)C(C)(C)C#N)NC3=CC4=C(C=C3)N=CN(C4=O)C
Outline: (§1)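 K562 cells at 2×10^6 cells/mL were treated with 10 μM compound for 30 min. Aliquots were heated for 3 min across 48°C-58°C, pooled, and extracted in PBS with 0.5% NP-40 at 4°C; soluble protein was the supernatant after 21,000xg for 90 min. Soluble protein was quantified by TMTpro 16plex LC-MS/MS with channel sums equalised, and reported as log2 fold change in thermal stability against DMSO controls, with values from duplicates.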

[2] = compound: CC1=C(C=C(C=C1)NC(=O)C2=CC(=CC=C2)N(C)C)NC(=O)C3=CC=C(C=C3)O
Outline: as §1

[3] = compound: CC1=CC=C(C=C1)SC2=C3C=C(SC3=CN=C2)C(=O)N
Outline: as §1

[4] = compound: CC1=NC(=CC=C1)C2=C(N=C(N2)C(C)(C)C)C3=CC4=NC=CN=C4C=C3
Outline: as §1

Nexturastat A = compound: CCCCN(Cc1ccc(C(=O)NO)cc1)C(=O)Nc1ccccc1 [Nexturastat A]
Outline: as §1

vemurafenib = compound: CCCS(=O)(=O)Nc1ccc(F)c(C(=O)c2c[nH]c3ncc(-c4ccc(Cl)cc4)cc23)c1F [vemurafenib]
Outline: as §1

[5] = compound: CCCS(=O)(=O)Nc1ccc(F)c(C(=O)c2c[nH]c3ncc(Cl)cc23)c1F
Outline: as §1

[6] = compound: CCCc1cc(C)[nH]c(=O)c1CNC(=O)c1cc(-c2ccnc(N3CCN(C)CC3)c2)cc2c1cnn2C(C)C
Outline: as §1

givinostat = compound: CCN(CC)Cc1ccc2cc(COC(=O)Nc3ccc(C(=O)NO)cc3)ccc2c1 [givinostat]
Outline: as §1

barasertib = compound: CCN(CCCOc1ccc2c(Nc3cc(CC(=O)Nc4cccc(F)c4)[nH]n3)ncnc2c1)CCOP(=O)(O)O [barasertib]
Outline: as §1

Measured: log2 fold change

SLC11A2 isoform 3 (UniProt P49281)
inactive: [1] 0.062 | [2] 0.037 | [3] -0.002 | [4] 0.065 | Nexturastat A 0.257 | vemurafenib 0.035 | [5] 0.005 | [6] -0.216 | givinostat -0.027 | barasertib -0.02

SLC3A2 isoform 3 (UniProt P08195)
inactive: [1] 0.025 | [2] -0.006 | [3] 0.011 | [4] 0.009 | Nexturastat A -0.053 | vemurafenib 0.014 | [5] 0.041 | [6] -0.014 | givinostat -0.005 | barasertib -0.005

SLC22A18 (UniProt Q96BI1)
inactive: [1] 0.031 | [2] -0.091 | [3] -0.002 | [4] -0.01 | Nexturastat A -0.018 | vemurafenib 0.017 | [5] 0 | [6] 0.014 | givinostat -0.017 | barasertib 0.03

SLC25A21 (UniProt Q9BQT8)
inactive: [1] -0.034 | [2] 0.018 | [3] -0.003 | [4] -0.009 | Nexturastat A -0.047 | vemurafenib -0.054 | [5] -0.034 | [6] -0.1 | givinostat -0.037 | barasertib -0.032

SLC6A6 (UniProt P31641)
inactive: [1] 0.017 | [2] 0.014 | [3] 0.011 | [4] 0.028 | Nexturastat A -0.062 | vemurafenib 0.066 | [5] -0.01 | [6] -0.176 | givinostat 0.014 | barasertib -0.018

SLC25A10 isoform 2 (UniProt Q9UBX3)
inactive: [1] 0.021 | [2] 0.044 | [3] 0.007 | [4] 0.044 | Nexturastat A -0.006 | vemurafenib -0.015 | [5] 0.005 | [6] -0.041 | givinostat 0.022 | barasertib -0.022

SLC18B1 (UniProt Q6NT16)
inactive: [1] -0.016 | [2] -0.194 | [3] -0.07 | [4] -0.111 | Nexturastat A 0.034 | vemurafenib 0.069 | [5] 0.005 | [6] -0.044 | givinostat -0.02 | barasertib 0.084

SLC27A1 (UniProt Q6PCB7)
inactive: [1] -0.186 | [2] 0.036 | [3] -0.046 | [4] 0.12 | Nexturastat A -0.061 | vemurafenib -0.109 | [5] -0.008 | [6] -0.01 | givinostat 0.049 | barasertib 0.043

SLC38A9 (UniProt Q8NBW4)
inactive: [1] 0.075 | [2] 0.007 | [3] -0.05 | [4] 0.023 | Nexturastat A 0.088 | vemurafenib -0.036 | [5] -0.012 | [6] -0.105 | givinostat 0.021 | barasertib -0.006

Retrieved one by one from the list above (2):
SLC38A9 (UniProt Q8NBW4)
inactive: [1] 0.075 | [2] 0.007 | [3] -0.05 | [4] 0.023 | Nexturastat A 0.088 | vemurafenib -0.036 | [5] -0.012 | [6] -0.105 | givinostat 0.021 | barasertib -0.006

SLC25A10 isoform 2 (UniProt Q9UBX3)
inactive: [1] 0.021 | [2] 0.044 | [3] 0.007 | [4] 0.044 | Nexturastat A -0.006 | vemurafenib -0.015 | [5] 0.005 | [6] -0.041 | givinostat 0.022 | barasertib -0.022

Going on with the list.

SLC25A24 (UniProt Q6NUK1)
inactive: [1] -0.043 | [2] -0.006 | [3] 0.016 | [4] 0.013 | Nexturastat A -0.051 | vemurafenib -0.031 | [5] -0.03 | [6] -0.029 | givinostat -0.005 | barasertib -0.012

SLC12A9 (UniProt Q9BXP2)
inactive: [1] -0.007 | [2] 0.056 | [3] -0.04 | [4] 0.005 | Nexturastat A -0.008 | vemurafenib 0.017 | [5] -0.012 | [6] -0.059 | givinostat -0.014 | barasertib 0.083

SLC5A6 (UniProt Q9Y289)
inactive: [1] -0.002 | [2] -0.015 | [3] 0.295 | [4] 0.035 | Nexturastat A 0.012 | vemurafenib 0.004 | [5] -0.037 | [6] -0.02 | givinostat 0.019 | barasertib -0.035

SLC30A6 isoform 2 (UniProt Q6NXT4)
inactive: [1] -0.054 | [2] -0.106 | [3] 0.017 | [4] -0.024 | Nexturastat A 0.005 | vemurafenib -0.16 | [5] -0.017 | [6] -0.169 | givinostat 0 | barasertib -0.013

SLC12A4 (UniProt Q9UP95)
inactive: [1] 0.025 | [2] 0.027 | [3] 0.059 | [4] 0.015 | Nexturastat A -0.012 | vemurafenib -0.014 | [5] -0.052 | [6] -0.023 | givinostat -0.037 | barasertib 0.066

SLC43A3 isoform 2 (UniProt Q8NBI5)
inactive: [1] -0.049 | [2] 0.05 | [3] -0.003 | [4] 0.015 | Nexturastat A -0.019 | vemurafenib -0.066 | [5] -0.032 | [6] -0.019 | givinostat -0.042 | barasertib 0.001

SLC35A4 (UniProt L0R6Q1)
inactive: [1] 0.017 | [2] -0.092 | [3] 0.017 | [4] 0.034 | Nexturastat A 0.033 | vemurafenib 0.01 | [5] 0.03 | [6] -0.134 | givinostat -0.041 | barasertib 0.079

SLC35A1 (UniProt P78382)
inactive: [1] -0.027 | [2] 0 | [3] -0.045 | [4] 0.06 | Nexturastat A -0.037 | [5] 0 | [6] -0.07 | givinostat -0.024 | barasertib -0.05
active: vemurafenib 0.382

SLC25A20 (UniProt O43772)
inactive: [1] -0.026 | [2] 0.042 | [3] 0.025 | [4] -0.008 | Nexturastat A -0.082 | vemurafenib -0.039 | [5] 0.056 | [6] -0.023 | givinostat -0.043 | barasertib 0

SLC7A11 (UniProt Q9UPY5)
inactive: [1] -0.042 | [2] -0.014 | [3] 0.046 | [4] 0.013 | Nexturastat A 0.013 | vemurafenib 0.036 | [5] -0.013 | [6] -0.035 | givinostat 0.002 | barasertib -0.002

SLC10A4 (UniProt Q96EP9)
inactive: [1] -0.099 | [2] 0.04 | [3] -0.057 | [4] -0.205 | Nexturastat A 0.087 | vemurafenib -0.181 | [5] -0.145 | [6] -0.1 | givinostat 0.085 | barasertib 0.052

SLC20A2 (UniProt Q08357)
inactive: [1] -0.048 | [2] -0.054 | [3] -0.034 | [4] -0.03 | Nexturastat A -0.076 | vemurafenib -0.086 | [5] -0.007 | [6] -0.056 | givinostat 0.042 | barasertib -0.025

SLC27A2 (UniProt O14975)
inactive: [1] 0.099 | [2] -0.042 | [3] -0.032 | [4] -0.032 | Nexturastat A -0.013 | vemurafenib 0.029 | [5] 0.073 | [6] 0.008 | givinostat -0.004 | barasertib 0

SLC25A11 (UniProt Q02978)
inactive: [1] 0.011 | [2] 0.014 | [3] 0.004 | [4] -0.014 | Nexturastat A -0.023 | vemurafenib -0.016 | [5] 0.044 | [6] -0.055 | givinostat -0.015 | barasertib 0.004

SLC7A5 (UniProt Q01650)
inactive: [1] 0.183 | [2] -0.016 | [3] -0.006 | [4] 0.037 | Nexturastat A 0.047 | vemurafenib 0.054 | [5] 0.028 | [6] -0.096 | givinostat 0.028 | barasertib -0.033

SLBP (UniProt Q14493)
inactive: [1] -0.012 | [2] -0.08 | [3] 0.019 | [4] 0.099 | Nexturastat A -0.218 | vemurafenib 0.028 | [5] 0.057 | [6] 0.024 | givinostat 0.055 | barasertib 0.06

SLC25A1 (UniProt P53007)
inactive: [1] -0.04 | [2] 0.046 | [3] 0.041 | [4] 0.024 | Nexturastat A -0.036 | vemurafenib 0.007 | [5] 0.023 | [6] -0.028 | givinostat -0.039 | barasertib -0.004

SLC16A1 (UniProt P53985)
inactive: [1] -0.031 | [2] -0.03 | [3] 0.037 | [4] -0.021 | Nexturastat A -0.057 | vemurafenib 0.016 | [5] -0.004 | [6] 0.061 | givinostat 0.005 | barasertib -0.031

SLC25A36 (UniProt Q96CQ1)
inactive: [1] 0.044 | [2] 0.008 | [3] -0.172 | [4] -0.048 | Nexturastat A 0.016 | [5] 0.016 | [6] -0.067 | givinostat 0.115 | barasertib -0.011
active: vemurafenib -0.297

SLC4A1AP (UniProt Q9BWU0)
inactive: [1] -0.085 | [2] -0.054 | [3] -0.032 | [4] 0.004 | Nexturastat A 0.077 | vemurafenib 0.065 | [5] -0.05 | [6] -0.007 | givinostat 0.077 | barasertib 0.006
